Reference: publication PMC7450086
Results are given in words; binding and its absence hold for the method and conditions named. In cells and extracts the contact can be indirect. These calls come from enrichment with a bait or labelling near it, and not all partners need be listed. Sequences can lack the tags named with a protein.

Target: T1, EGFP-Spn-F (Spindle-F) (Drosophila) (UniProt Q9V9Y9)
T1 sequence: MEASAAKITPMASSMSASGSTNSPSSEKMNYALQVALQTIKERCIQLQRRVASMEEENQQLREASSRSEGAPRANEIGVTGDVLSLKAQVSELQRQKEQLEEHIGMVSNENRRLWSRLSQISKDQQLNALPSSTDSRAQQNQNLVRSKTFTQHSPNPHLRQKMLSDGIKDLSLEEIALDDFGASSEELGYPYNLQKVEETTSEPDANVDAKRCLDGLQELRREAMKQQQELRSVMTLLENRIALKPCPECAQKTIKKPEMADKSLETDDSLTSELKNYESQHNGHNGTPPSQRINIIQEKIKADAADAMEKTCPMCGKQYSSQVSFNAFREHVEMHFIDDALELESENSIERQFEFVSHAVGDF
Test: affinity purification with mass spectrometry; GFP-Spn-F (Actin-Gal4 driven) precipitated from adult fly head lysates with GFP magnetic beads (Chromoteck) overnight at 4 °C; lysis buffer 50 mM Tris-HCl pH 7.5, 150 mM NaCl, 1% NP-40, 0.5% sodium deoxycholate; washes 10 mM Tris-HCl pH 8.0, 150 mM NaCl, 0.1% NP-40; GFP-only flies as control; LC-MS/MS

B1: I-kappaB kinase ε (Ik2) (enzyme, UniProt Q7KJQ4 1-711)
chain: MSFLRGSVSYVWCTTSVLGKGATGSVFQGVNKITGESVAVKTFNPYSHMRPADVQMREFEALKKVNHENIVKLLAIEEDQEGRGKVIVMELCTGGSLFNILDDPENSYGLPEHEFLLVLEHLCAGMKHLRDNKLVHRDLKPGNIMKFISEDGQTIYKLTDFGAARELEDNQPFASLYGTEEYLHPDLYERAVLRKSIQRSFTANVDLWSIGVTLYHVATGNLPFRPFGGRKNRETMHQITTKKASGVISGTQLSENGPIEWSTTLPPHAHLSQGLKTLVTPLLAGLLEENREKTWSFDRFFHEVTLILRKRVIHVFFTNRTSSVEVFLEPDEQIDNFRERIFLQTEVPLEKQILLFNNEHLEKKVTPRTIDQPIFLYSNDDNNVQLPQQLDLPKFPVFPPNVSVENDASLAKSACSVGHECKRRVDIFTSMDILIKKGVEHFIEMLVTTITLLLKKTESFDNLLSTVIDYADVVHSMARVTKGDQEIKTLLTALENVKSDFDGAADVISQMHKHFVIDDELNDQWTSSMHGKKCPCKTRASAQAKYLVERLRDSWQHLLRDRATRTLTYNDEQFHALEKIKVDHNGKRIKALLLDNVNPTVAQIAECLADWYKLAQTVYLKTQILEKDVRDCERKLNGIRDELYHVKSELKLDVDTKTINNNNQLAKIEERNRLRVMQQQQQEVMAVMRTNSDIISLLSKLGITNGSLESS
- binding: binds

B2: Hook (protein, UniProt Q24185 1-679)
chain: MSAPKNEMYYSLLEWFKTLNLNAPHADAESLADGVALAQALNQFAPESFTDAWLSKIKASAVGSNWRLRMSNLKKVTQSVYDYYSDVLNYSLSDFSKPDLQRIAEKCDLGELERLLQLVLGCAVNCAEKQSYITEIMCLEEELQANIMRALQELEATRQASTPEGGVASSLSRGSRTGLLDSKAVQEDRDALAQKCFETEKKMLLLIDEKTNLQQELHKLQQEFARLEQHSTVIGDDGVSLGPVQTGSVRYNELRRQLDLLKEELLQSEGAREDLKIKAQQQDTDLLHMQMRIEELMKSSAEVTTLKDEVDVLRESNDKLKICEAQLDTYKKKLEDYNDLKKQVKILEERSADYVQQNAQFEEDAKRYANTKGQVELFKKEIQDLHAKLDAESSKNVKLEFDNKNLESKNLALQRAKDSLLKERDNLREAVDELKCGQLSSNTALTGTTVSRELQPSATVEKLQRLEAENKALREGQGGQTALAQLLDDANKRCENLREQLKTANERILSLSHASQSDDPILKESEFGKQIKQLMELNEQKTLQLEEAVTQSTSLQCKVTQLETNLSAREQEILVYDAKYRKCVEKAKEVIKSIDPRIASALDASVLEKSADLVEEEPKPKMSVMEEQLMTSAFYRLGVNAQRDAIDSKLAILMGSGQTFLARQRQSAPRKSLSAMKSK
- binding: binds

B3: Yolk protein 1 (protein, UniProt P02843 21-439)
chain: PNGRMDNSVNQALKPSQWLSGSQLEAIPALDDFTIERLENMNLERGAELLQQVYHLSQIHHNVEPNYVPSGIQVYVPKPNGDKTVAPLNEMIQRLKQKQNFGEDEVTIIVTGLPQTSETVKKATRKLVQAYMQRYNLQQQRQHGKNGNQDYQDQSNEQRKNQRTSSEEDYSEEVKNAKTQSGDIIVIDLGSKLNTYERYAMLDIEKTGAKIGKWIVQMVNELDMPFDTIHLIGQNVGAHVAGAAAQEFTRLTGHKLRRVTGLDPSKIVAKSKNTLTGLARGDAEFVDAIHTSVYGMGTPIRSGDVDFYPNGPAAGVPGASNVVEAAMRATRYFAESVRPGNERSFPAVPANSLQQYKQNDGFGKRAYMGIDTAHDLEGDYILQVNPKSPFGRNAPAQKQSSYHGVHQAWNTNQDSKDYQ
- binding: binds

B4: Triosephosphate isomerase (enzyme, UniProt P29613 1-247)
chain: MSRKFCVGGNWKMNGDQKSIAEIAKTLSSAALDPNTEVVIGCPAIYLMYARNLLPCELGLAGQNAYKVAKGAFTGEISPAMLKDIGADWVILGHSERRAIFGESDALIAEKAEHALAEGLKVIACIGETLEEREAGKTNEVVARQMCAYAQKIKDWKNVVVAYEPVWAIGTGQTATPDQAQEVHAFLRQWLSDNISKEVSASLRIQYGGSVTAANAKELAKKPDIDGFLVGGASLKPEFVDIINARQ
- binding: binds
